The list shows a part of the results.
What follows are targets tested with CON(C)C(=O)N1N=C(c2cc(F)ccc2F)S[C@@]1(CCCN)c1ccccc1 [filanesib] (assay: log2 fold change, soluble protein after heating vs DMSO (PISA); higher = thermal stabilisation; K562 cells, 10 uM, 30 min; active = over 0.2 and 3.5 SD of the protein, either way, in both replicates (recomputed)).
Procedure, shortened: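 K562 cells at 2×10^6 cells/mL were exposed to 10 μM compound for 30 min, then aliquots were heated for 3 min across 48°C-58°C, pooled, and extracted in PBS containing 0.5% NP-40 at 4°C. The supernatant after 21,000xg for 90 min was taken as soluble protein and measured by TMTpro 16plex LC-MS/MS with channel sums equalised. Thermal stability is reported relative to control samples, with values from duplicates. Fold changes are given on a log2 scale.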

The chains behind the UniProt entries cited, without tags or fusion partners. Where a name states a change or a piece, a line headed by the entry shows the natural chain unless it says otherwise.
UniProt Q9UBF6, whole entry, looked up: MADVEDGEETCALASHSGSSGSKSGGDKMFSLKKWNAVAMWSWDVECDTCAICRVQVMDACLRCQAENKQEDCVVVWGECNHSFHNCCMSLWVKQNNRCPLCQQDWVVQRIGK
UniProt Q8TA86: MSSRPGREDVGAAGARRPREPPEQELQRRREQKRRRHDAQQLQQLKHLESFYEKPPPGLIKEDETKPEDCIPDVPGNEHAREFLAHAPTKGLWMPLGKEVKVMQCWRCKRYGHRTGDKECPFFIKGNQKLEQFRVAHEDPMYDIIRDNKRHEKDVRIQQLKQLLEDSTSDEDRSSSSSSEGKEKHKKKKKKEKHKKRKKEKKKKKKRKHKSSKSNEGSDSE
UniProt Q9P2E9: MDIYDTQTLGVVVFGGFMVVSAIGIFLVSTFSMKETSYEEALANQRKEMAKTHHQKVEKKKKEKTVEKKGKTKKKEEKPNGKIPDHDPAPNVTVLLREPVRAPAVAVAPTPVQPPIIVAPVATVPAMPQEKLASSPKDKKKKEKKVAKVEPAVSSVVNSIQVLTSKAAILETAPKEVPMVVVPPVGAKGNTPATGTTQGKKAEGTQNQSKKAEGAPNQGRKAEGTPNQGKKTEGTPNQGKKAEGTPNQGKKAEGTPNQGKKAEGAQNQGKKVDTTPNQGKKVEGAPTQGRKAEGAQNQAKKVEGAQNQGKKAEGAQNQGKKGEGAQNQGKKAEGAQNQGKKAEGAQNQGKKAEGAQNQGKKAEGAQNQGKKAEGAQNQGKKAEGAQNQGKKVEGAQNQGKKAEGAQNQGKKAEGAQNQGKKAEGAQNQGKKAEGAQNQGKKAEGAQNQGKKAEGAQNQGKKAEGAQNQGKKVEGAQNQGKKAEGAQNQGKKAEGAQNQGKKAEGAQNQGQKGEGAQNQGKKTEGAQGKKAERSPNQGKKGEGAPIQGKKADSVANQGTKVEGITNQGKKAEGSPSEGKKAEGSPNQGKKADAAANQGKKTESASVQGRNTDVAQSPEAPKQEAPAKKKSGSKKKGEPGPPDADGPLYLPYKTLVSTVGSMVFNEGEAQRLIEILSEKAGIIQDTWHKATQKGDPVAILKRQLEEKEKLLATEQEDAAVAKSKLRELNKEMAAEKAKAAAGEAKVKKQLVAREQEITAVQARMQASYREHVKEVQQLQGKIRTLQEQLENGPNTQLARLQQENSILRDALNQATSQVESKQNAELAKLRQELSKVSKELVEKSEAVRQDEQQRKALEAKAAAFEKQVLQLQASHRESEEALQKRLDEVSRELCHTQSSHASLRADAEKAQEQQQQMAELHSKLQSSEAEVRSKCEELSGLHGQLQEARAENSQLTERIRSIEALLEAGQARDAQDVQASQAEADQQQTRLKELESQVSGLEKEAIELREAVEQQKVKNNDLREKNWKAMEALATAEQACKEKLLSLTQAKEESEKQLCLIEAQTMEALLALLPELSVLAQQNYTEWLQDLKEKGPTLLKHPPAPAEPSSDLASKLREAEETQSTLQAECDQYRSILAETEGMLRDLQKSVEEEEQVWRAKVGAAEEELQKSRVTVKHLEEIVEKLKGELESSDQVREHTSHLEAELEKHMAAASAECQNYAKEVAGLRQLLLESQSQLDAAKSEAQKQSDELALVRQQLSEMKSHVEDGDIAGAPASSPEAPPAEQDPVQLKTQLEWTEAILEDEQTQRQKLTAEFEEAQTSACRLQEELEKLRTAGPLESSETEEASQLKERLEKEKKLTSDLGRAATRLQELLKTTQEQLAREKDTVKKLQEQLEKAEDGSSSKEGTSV
UniProt Q96S38: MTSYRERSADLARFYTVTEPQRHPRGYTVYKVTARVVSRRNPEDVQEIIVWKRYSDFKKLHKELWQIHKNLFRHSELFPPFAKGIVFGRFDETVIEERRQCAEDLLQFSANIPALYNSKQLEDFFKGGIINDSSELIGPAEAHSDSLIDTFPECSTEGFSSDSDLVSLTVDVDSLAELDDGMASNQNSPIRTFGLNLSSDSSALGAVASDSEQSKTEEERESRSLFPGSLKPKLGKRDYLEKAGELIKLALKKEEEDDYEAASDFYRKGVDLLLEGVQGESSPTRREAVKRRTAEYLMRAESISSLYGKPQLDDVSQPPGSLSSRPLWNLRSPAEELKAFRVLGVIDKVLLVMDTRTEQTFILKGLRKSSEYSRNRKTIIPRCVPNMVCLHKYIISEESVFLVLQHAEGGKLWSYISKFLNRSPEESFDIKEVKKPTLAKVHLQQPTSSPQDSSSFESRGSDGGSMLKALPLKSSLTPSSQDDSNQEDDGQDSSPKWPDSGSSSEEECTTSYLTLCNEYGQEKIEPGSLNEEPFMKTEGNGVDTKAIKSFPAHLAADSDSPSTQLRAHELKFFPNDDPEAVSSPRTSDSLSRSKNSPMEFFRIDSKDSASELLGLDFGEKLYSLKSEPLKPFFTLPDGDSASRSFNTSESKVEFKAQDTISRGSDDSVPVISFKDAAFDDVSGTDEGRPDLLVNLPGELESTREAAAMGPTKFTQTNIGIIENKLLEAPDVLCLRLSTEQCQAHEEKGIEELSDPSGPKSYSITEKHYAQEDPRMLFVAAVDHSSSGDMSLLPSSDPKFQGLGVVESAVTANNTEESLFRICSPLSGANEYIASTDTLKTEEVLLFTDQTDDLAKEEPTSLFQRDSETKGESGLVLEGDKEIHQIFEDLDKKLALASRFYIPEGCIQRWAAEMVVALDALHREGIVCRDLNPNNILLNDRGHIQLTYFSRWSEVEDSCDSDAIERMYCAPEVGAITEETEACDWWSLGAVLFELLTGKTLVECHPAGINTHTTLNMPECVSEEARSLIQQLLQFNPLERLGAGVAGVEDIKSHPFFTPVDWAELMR
UniProt O75818: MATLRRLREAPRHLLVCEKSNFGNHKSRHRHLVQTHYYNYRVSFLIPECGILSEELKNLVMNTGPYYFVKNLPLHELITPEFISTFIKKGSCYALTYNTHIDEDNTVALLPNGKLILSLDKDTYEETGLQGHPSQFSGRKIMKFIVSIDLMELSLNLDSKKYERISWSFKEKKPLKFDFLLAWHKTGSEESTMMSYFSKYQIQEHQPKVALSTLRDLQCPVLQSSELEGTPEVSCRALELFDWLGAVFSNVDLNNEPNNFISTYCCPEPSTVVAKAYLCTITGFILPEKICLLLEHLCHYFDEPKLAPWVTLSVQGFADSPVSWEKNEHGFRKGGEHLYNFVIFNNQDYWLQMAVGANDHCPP
UniProt P62070: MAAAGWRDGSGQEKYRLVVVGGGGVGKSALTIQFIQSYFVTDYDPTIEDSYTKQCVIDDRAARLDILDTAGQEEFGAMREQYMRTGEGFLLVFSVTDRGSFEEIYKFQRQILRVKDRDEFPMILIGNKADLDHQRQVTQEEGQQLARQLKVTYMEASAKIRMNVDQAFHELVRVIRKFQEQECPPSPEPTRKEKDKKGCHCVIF
UniProt Q96BH1: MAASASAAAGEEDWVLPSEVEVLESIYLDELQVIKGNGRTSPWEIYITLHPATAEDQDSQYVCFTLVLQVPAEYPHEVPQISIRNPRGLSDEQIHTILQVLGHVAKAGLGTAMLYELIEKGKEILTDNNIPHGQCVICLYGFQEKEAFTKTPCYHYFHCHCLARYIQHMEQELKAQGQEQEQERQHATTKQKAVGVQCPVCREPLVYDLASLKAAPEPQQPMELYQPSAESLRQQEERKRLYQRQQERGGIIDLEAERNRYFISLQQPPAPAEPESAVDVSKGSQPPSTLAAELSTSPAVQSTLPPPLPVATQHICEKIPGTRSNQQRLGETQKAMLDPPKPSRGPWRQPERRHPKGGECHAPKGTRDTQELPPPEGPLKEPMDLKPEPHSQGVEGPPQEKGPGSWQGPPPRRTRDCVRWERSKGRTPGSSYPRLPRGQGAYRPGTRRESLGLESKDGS
UniProt P35244: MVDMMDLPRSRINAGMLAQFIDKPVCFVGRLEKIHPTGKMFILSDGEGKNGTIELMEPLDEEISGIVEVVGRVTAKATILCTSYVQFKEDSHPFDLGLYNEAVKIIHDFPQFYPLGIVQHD
UniProt Q15349, whole entry, looked up: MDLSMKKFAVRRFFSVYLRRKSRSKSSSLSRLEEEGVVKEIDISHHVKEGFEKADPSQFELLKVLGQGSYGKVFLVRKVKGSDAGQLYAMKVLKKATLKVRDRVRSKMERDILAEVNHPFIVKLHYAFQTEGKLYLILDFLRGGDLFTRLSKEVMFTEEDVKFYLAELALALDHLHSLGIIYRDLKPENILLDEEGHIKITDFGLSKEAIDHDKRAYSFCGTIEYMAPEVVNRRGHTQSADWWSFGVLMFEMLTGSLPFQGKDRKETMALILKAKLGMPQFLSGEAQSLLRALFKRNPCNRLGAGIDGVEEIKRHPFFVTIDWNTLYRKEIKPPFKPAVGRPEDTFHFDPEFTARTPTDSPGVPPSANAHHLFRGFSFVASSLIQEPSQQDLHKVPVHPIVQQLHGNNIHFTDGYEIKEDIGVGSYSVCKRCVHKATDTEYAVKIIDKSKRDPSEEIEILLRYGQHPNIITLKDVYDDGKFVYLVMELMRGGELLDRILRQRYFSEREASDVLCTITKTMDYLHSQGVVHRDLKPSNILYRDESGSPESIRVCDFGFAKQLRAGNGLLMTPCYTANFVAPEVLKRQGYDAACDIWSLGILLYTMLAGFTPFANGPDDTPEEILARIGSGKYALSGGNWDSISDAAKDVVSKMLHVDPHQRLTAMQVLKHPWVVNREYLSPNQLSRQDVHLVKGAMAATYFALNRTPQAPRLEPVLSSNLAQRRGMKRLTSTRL
UniProt O75695: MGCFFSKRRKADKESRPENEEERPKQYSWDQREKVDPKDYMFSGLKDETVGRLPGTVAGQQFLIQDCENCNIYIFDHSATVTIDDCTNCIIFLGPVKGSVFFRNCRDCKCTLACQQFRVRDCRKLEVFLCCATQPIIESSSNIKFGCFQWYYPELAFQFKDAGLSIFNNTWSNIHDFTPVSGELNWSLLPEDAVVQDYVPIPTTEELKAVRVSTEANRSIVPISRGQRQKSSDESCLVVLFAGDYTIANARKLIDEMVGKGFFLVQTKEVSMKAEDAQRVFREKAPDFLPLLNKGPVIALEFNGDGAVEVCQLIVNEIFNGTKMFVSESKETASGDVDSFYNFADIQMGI
UniProt Q7L523, whole entry, looked up: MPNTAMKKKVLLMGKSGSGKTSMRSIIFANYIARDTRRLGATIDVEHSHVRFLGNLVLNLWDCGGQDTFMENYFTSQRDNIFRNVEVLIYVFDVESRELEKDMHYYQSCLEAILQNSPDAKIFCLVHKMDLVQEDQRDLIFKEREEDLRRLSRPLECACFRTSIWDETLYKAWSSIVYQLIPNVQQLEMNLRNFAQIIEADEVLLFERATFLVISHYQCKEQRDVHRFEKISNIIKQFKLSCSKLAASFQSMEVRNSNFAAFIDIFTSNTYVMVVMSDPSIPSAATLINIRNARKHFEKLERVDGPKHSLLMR
UniProt P23443: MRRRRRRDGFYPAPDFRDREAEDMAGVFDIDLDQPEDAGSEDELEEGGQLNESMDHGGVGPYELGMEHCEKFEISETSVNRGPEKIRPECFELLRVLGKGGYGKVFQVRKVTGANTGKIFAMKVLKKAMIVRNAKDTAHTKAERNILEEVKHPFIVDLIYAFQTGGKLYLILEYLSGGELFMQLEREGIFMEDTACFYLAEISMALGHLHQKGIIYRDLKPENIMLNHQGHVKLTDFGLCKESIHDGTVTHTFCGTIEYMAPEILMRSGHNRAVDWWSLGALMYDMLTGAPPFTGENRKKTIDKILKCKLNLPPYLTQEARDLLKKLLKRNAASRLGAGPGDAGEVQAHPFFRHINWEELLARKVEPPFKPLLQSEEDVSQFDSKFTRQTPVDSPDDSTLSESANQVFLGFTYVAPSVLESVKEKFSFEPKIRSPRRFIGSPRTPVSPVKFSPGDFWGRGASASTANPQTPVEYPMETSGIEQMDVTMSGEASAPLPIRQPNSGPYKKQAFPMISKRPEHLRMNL
UniProt P04844: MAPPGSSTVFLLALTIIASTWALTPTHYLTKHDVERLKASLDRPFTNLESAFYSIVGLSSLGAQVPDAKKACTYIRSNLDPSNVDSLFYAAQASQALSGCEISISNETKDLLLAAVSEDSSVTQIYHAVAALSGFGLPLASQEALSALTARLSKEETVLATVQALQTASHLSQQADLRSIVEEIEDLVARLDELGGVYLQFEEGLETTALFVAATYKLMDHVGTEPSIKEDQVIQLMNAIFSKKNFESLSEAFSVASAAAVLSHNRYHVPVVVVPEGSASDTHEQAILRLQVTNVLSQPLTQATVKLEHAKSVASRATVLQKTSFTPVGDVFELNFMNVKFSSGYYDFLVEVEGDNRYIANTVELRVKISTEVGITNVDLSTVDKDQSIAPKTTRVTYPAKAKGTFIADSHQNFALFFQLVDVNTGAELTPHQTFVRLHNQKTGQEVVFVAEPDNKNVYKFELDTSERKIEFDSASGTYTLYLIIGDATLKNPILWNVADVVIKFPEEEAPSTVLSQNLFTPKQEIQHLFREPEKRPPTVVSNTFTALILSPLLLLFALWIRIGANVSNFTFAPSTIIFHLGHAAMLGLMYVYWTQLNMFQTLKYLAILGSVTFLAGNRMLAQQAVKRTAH

log2 fold change, inactive:
RNF7 (UniProt Q9UBF6) -0.023
RPS20 isoform 2 (UniProt P60866) 0.085
RPS27A (UniProt P62979) 0.215
RP9 (UniProt Q8TA86) 0.309
RRBP1 (UniProt Q9P2E9) 0.589
RPL39P5 (UniProt Q59GN2) 0.635
RPL36AL (UniProt Q969Q0) 0.505
RPS6KC1 (UniProt Q96S38) -0.013
RPL23 (UniProt P62829) 0.281
RPP40 (UniProt O75818) 0.036
RRAS2 isoform 4 (UniProt P62070) 0.059
RPS23 (UniProt P62266) 0.408
RPL30 (UniProt P62888) 0.405
RPL11 (UniProt P62913) 0.644
RNF25 (UniProt Q96BH1) -0.063
RPL12 (UniProt P30050) 0.669
RPS3 (UniProt P23396) 0.102
RPA3 (UniProt P35244) -0.038
RPS25 (UniProt P62851) 0.145
RPL27 (UniProt P61353) 0.486
RPS6KA2 isoform 2 (UniProt Q15349) -0.006
RPL36A (UniProt P83881) 0.551
RP2 (UniProt O75695) -0.132
RPS17 (UniProt P08708) 0.105
RPS13 (UniProt P62277) 0.394
RRAGA (UniProt Q7L523) 0.084
RPL37 (UniProt P61927) 0.528
RPS14 (UniProt P62263) 0.046
RPL36 (UniProt Q9Y3U8) 0.684
RPS29 (UniProt P62273) 0.138
RPS6KB1 (UniProt P23443) -0.067
RPN2 (UniProt P04844) -0.038
RPL15 (UniProt P61313) 0.786
RPL5 (UniProt P46777) 0.323
RPS15 (UniProt P62841) 0.192
RPL24 (UniProt P83731) 0.473
RPS24 isoform 4 (UniProt P62847) 0.313
RPS5 (UniProt P46782) 0.089
RPS2 (UniProt P15880) 0.214
RPS26 (UniProt P62854) 0.473

An excerpt from further up, for reference:
log2 fold change, inactive:
RPP40 (UniProt O75818) 0.036
RRAS2 isoform 4 (UniProt P62070) 0.059
RPS23 (UniProt P62266) 0.408

— the supplement of paper PMC10849652
